Data reported in patent US20030162221A1.
No constants are given. Whether binding was seen depends on the method and setting. In cells and extracts the contact can be indirect. Some binding calls cover weakened binding; strength is not graded here. For some assays here: Where a sequence is shown, tags or fusion partners need not be part of it. One block for each binder: values may come before it.

Sequences of proteins named here, by UniProt entry; tags and fusion partners are left off.
UniProt P32598: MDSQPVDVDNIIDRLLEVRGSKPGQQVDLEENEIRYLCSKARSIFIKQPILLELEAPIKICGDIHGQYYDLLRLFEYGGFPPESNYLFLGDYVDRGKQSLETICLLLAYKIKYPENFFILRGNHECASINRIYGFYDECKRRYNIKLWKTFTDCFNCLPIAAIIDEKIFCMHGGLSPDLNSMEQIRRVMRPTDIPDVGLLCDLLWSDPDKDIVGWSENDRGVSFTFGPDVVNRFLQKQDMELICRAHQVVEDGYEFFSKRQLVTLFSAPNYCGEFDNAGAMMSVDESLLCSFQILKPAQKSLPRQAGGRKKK

How the values were obtained:
[1] = target: Glc7 (Saccharomyces cerevisiae) (UniProt P32598); experiment: anti-FLAG co-IP, LC-MS/MS
[2] = target: T1, Dun1 (Saccharomyces cerevisiae) (UniProt P39009); experiment: anti-FLAG co-IP, LC-MS/MS
T1 sequence (looked up): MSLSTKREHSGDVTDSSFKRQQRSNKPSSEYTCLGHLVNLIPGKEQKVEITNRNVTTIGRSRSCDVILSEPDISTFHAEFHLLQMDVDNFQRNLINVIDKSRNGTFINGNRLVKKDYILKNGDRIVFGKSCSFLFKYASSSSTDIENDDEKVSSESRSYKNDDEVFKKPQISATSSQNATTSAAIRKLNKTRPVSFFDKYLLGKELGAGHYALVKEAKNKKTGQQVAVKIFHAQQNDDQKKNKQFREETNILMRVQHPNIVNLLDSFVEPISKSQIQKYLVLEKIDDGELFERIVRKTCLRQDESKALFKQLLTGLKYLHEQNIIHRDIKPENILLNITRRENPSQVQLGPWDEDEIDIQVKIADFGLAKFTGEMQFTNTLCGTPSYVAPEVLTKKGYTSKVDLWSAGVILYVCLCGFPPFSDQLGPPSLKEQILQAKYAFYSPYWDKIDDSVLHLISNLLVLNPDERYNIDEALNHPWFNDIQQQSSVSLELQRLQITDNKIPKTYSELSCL

[3] = target: T1, Dun1 (Saccharomyces cerevisiae); experiment: anti-FLAG co-IP, LC-MS/MS; Dun1 was the prey by Table 2
[4] = target: T2, Ydr071c (Saccharomyces cerevisiae) (UniProt Q12447); experiment: anti-FLAG co-IP, LC-MS/MS
T2 sequence (looked up): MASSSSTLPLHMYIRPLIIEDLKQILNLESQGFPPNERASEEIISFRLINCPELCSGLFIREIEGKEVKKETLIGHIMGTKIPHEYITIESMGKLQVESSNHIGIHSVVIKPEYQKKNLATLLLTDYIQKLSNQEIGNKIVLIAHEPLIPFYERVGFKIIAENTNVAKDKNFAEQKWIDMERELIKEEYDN

[5] = target: T3, Rad3 (Saccharomyces cerevisiae) (UniProt P06839); experiment: anti-FLAG co-IP, LC-MS/MS
T3 sequence (looked up): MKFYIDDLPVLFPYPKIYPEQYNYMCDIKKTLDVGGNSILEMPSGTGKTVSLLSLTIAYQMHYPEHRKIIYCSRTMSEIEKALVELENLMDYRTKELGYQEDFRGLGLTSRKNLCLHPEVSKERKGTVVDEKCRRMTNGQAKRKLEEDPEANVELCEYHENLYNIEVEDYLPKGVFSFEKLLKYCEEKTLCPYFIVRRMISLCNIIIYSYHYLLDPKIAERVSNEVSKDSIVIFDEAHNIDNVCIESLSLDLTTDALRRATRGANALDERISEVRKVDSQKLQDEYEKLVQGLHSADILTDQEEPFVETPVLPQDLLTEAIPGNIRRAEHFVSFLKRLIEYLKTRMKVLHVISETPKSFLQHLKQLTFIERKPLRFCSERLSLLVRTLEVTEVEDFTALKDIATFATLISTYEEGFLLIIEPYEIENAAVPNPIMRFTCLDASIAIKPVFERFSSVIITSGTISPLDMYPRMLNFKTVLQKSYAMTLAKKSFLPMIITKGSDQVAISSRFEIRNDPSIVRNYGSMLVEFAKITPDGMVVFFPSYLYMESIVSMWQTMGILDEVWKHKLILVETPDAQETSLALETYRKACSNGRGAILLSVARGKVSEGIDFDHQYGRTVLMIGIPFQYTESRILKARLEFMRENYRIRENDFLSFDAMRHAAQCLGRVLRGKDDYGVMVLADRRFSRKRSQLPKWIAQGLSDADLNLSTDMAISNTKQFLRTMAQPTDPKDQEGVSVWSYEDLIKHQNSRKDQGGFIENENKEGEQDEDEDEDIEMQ

B3: Rad9 (protein, Saccharomyces cerevisiae, UniProt P14737 1-1309, looked up)
chain: MSGQLVQWKSSPDRVTQSAIKEALHSPLADGDMNEMNVPVDPLENKVNSTNIIEGSPKANPNPVKFMNTSEIFQKSLGLLDESPRHDDELNIEVGDNDRPNANILHNERTPDLDRIANFFKSNRTPGKENLLTKYQSSDLEDTPLMLRKKMTFQTPTDPLEQKTFKKLKSDTGFCYYGEQNDGEENASLEVTEADATFVQMAERSADNYDCALEGIVTPKRYKDELSKSGGMQDERVQKTQIMISAESPNSISSYDKNKITGNGRTTRNVNKVFNNNEDNIGAIEEKNPVKKKSENYSSDDLRERNNQIIQSNESEEINELEKNLNVSGRENDVNNLDIDINSAVSGTPSRNNAEEEMYSSESVNNREPSKKWIFRYSKDKTENNSNRSTQIVNNPRTQEMPLDSISIDTQPLSKSFNTETNNELETQIIVSSLSQGISAQKGPVFHSTGQTEEIKTQIINSPEQNALNATFETPVTLSRINFEPILEVPETSSPSKNTMSKPSNSSPIPKEKDTFNIHEREVETNNVFSNDIQNSSNAATRDDIIIAGSSDFNEQKEITDRIYLQLSGKQISDSGSDETERMSPNELDTKKESTIMSEVELTQELPEVEEQQDLQTSPKKLVVEEETLMEIKKSKGNSLQLHDDNKECNSDKQDGTESLDVALIEHESKGQSSELQKNLMQLFPSESQEIIQNRRTIKRRQKDTIEIGEEEENRSTKTSPTKHLKRNSDLDAASIKREPSCSITIQTGETGSGKDSKEQSYVFPEGIRTADNSFLSKDDIIFGNAVWCQYTWNYKFYPGILLEVDTNQDGCWIYFETGRSLTKDEDIYYLDIRIGDAVTFDGNEYVVVGLECRSHDLNIIRCIRGYDTVHLKKKNASGLLGKRTLIKALSSISLDLSEWAKRAKIILEDNEKNKGDAYRYLRHPIRGRKSMTNVLSPKKHTDDEKDINTHTEVYNNEIESSSEKKEIVKKDSRDALAEHAGAPSLLFSSGEIRTGNVFDKCIFVLTSLFENREELRQTIESQGGTVIESGFSTLFNFTHPLAKSLVNKGNTDNIRELALKLAWKPHSLFADCRFACLITKRHLRSLKYLETLALGWPTLHWKFISACIEKKRIVPHLIYQYLLPSGESFRLSLDSPSKGGIIKSNNIFSFYTQFLRGSNLRDQICGVKKMLNDYIVIVWGRSELDSFVKFAFACLSAGRMLTIDLPNIDVDDTEPLLNALDSLVPRIGSELSNRKLKFLIYANENNGKSQMKLLERLRSQISLKFKKFNYIFHTESKEWLIQTIINEDTGFHDDITDNDIYNTISEVR
binding [2]: binds
binding [3]: binds

B4: Sds22 (protein, Saccharomyces cerevisiae, UniProt P36047 1-338, looked up)
chain: MDKNSVNKDSEEKDERHKIEVVDDTNPDFITADSELTQDLPDDVEVIDLVHLKIKSLEDLNLYRFKNLKQLCLRQNLIESISEVEVLPHDKIVDLDFYDNKIKHISSNVNKLTKLTSLDLSFNKIKHIKNLENLTDLENLYFVQNSISKIENLSTLKSLKNLELGGNKVHSIEPDSFEGLSNLEEIWLGKNSIPRLINLHPLKNLKILSIQSNKLKKIENLEELTNLEELYLSHNFITKIEGLEKNLKLTTLDVTSNKITSLENLNHLSNLTDIWASFNKIDQSFESLGENLSALSRLETIYLEGNPIQLENKTSYRRKLTMNLPPSLQKIDATYIRG
binding [1]: binds

B6: Ptc3 (protein, Saccharomyces cerevisiae, UniProt P34221 1-468, looked up)
chain: MGQILSNPIIDKEHHSGTDCLTAFGLCAMQGWRMSMEDAHIVEPNLLAESDEEHLAFYGIFDGHGGSSVAEFCGSKMISILKKQESFKSGMLEQCLIDTFLATDVELLKDEKLKDDHSGCTATVILVSQLKKLLICANSGDSRTVLSTGGNSKAMSFDHKPTLLSEKSRIVAADGFVEMDRVNGNLALSRAIGDFEFKSNTKLGPHEQVVTCVPDIICHNLNYDEDEFVILACDGIWDCLTSQECVDLVHYGISQGNMTLSDISSRIVDVCCSPTTEGSGIGCDNMSISIVALLKENESESQWFERMRSKNYNIQTSFVQRRKSIFDFHDFSDDDNEVFAITTKKLQDRLNRSKDNDDMEIDDLDTELGSSATPSKLSGEDRTGPIDLFSLEALLEAGIQIRQRPSSDSDGNTSYFHGASLSDMLASLSNAAAGETEPNDADDNDDNDGEENGKNENAKKGSKIEEIE
binding [4]: binds

B7: Ptc4 (protein, Saccharomyces cerevisiae, UniProt P38089 1-393, looked up)
chain: MGQLLSHPLTEKTIEYNEYKNNQASTGIVPRFYNCVGSMQGYRLTQEDAHLIRNENSVVYVRFFNPFIDKYETLSLNVFAVFDGHGGDDCSKFLSGGRHHRDGNGSSNGNGEPNAGLIKWIAYSFENHHYTSTTNNDSSKFKRSFNTLEGLVSQIFKDAFILQDEELYRHFANSSCGSTAVVACIINEESLYVANCGDSRCILSSKSNGIKTMSFDHKPQHIGELIRINDNGGTVSLGRVGGVLALSRAFSDFQFKRGVTYPHRRTKLTNITQNLTYGTPPQEAQVTVEPDVLMHKIDYSKDEFLVLACDGIWDIYNNKQLIHFIKYHLVSGTKLDTIITKLLDHGIAQANSNTGVGFDNMTAIIVVLNRKGETLQDWFNKMKTRLERERGLV
binding [4]: binds

B8: TFB3 (protein, Saccharomyces cerevisiae, UniProt Q03290 1-321, looked up)
chain: MLMDEYEENKDMCPICKTDRYLSPDVKFLVNPECYHRICESCVDRIFSLGPAQCPYKGCDKILRKNKFKTQIFDDVEVEKEVDIRKRVFNVFNKTIDDFNGDLVEYNKYLEEVEDIIYKLDHGIDVAKTEEKLRTYEELNKQLIMNNLERSRTEIESFEQRQKFEKEMKLKKRLLERQIEEEERMNKEWTKKEIVNRLSTTTQDINETIEGVKNTVKLKKSSARRKLEELNRVLKNNPYFNSNVNVQNSRLKDAVPFTPFNGDREAHPRFTLKGSVYNDPFIKDLEHRKEFIASGFNTNYAYERVLTEAFMGLGCVISEEL
binding [5]: binds

B9: Gip2 (protein, Saccharomyces cerevisiae, UniProt P40036 1-548, looked up)
chain: MYIKAEQKPQQFERKNEKLDRNKNQQLPDLETDFKGYRVNSDLYNKERDGSTEETLNSLKFLHKPQRVTQMRANRFPEEEVQRNTDLNKRIFSAGNDENVDNESGWSKIAAAKNHTSVESLNGSTRPPFKIELPPLSPKSTVPKSFQAEYPEAKSPGNDMNFEYDEEILIPFAPPVYKKSGELLKSSLKRRSKSLPTTPGIRSGNGVQARDGSPMLIRSKSVHFDQAAPVKYFAEDESPINVNKTEQHDNCLSFKHKPVNLMVDPEEETKMLSSGLETTSIDDDLTTVAPKGFAHPAKISNPNNGKGTNNTKLRKSKRFQNLLKNRTDMPPSKSNKKFVNGGGAHEISDRNSKNYHVVGLYSKNFPILSNKNPKSLKLNIFINLSQNKKVFLQELSLYIHRDNNYFSNSSSFYNIPNSHNGNDCNGVAKGYNAGCTRLIAGRILVKNIFYDKRVVVRYTWDSWRTTHEVECVYISDGDGILPGTNMDIFHFIIDDVSKVDPRGKLEFCIHYSTRNDYEREEYWDNNNGNNYKVDVVMDGFNDPFAAAA
binding [1]: binds

More lines, now with the values ahead:

binding [1]: binds
B1: Glc8 (protein, Saccharomyces cerevisiae, UniProt P41818 1-229, looked up)
chain: MGGILKNPLALSPEQLAQQDPETLEEFRRQVYENTQKNAKLTSHKRNIPGLDNTKEEGEIIGTSSTFLPKDTLSLKHEQDMLAKMTPEERVQWNQRNLAENEITKKQFQDIHIDEPKTPYQGAVDPHGEYYRVDDDEDEDNSDKKPCQVANDDIDDLSLGEPEFEIKENKQPDFETNDENDEDSPEARHKKFEEMRKKHYDVRAIFNKKSREALKDEDEDEDDSTTKEP

binding [1]: binds
B2: Cdc14 (protein, Saccharomyces cerevisiae, UniProt Q00684 1-551, looked up)
chain: MRRSVYLDNTIEFLRGRVYLGAYDYTPEDTDELVFFTVEDAIFYNSFHLDFGPMNIGHLYRFAVIFHEILNDPENANKAVVFYSSASTRQRANAACMLCCYMILVQAWTPHQVLQPLAQVDPPFMPFRDAGYSNADFEITIQDVVYGVWRAKEKGLIDLHSFNLESYEKYEHVEFGDFNVLTPDFIAFASPQEDHPKGYLATKSSHLNQPFKSVLNFFANNNVQLVVRLNSHLYNKKHFEDIGIQHLDLIFEDGTCPDLSIVKNFVGAAETIIKRGGKIAVHCKAGLGRTGCLIGAHLIYTYGFTANECIGFLRFIRPGMVVGPQQHWLYLHQNDFREWKYTTRISLKPSEAIGGLYPLISLEEYRLQKKKLKDDKRVAQNNIEGELRDLTMTPPSNGHGALSARNSSQPSTANNGSNSFKSSAVPQTSPGQPRKGQNGSNTIEDINNNRNPTSHANRKVVIESNNSDDESMQDTNGTSNHYPKVSRKKNDISSASSSRMEDNEPSATNINNAADDTILRQLLPKNRRVTSGRRTTSAAGGIRKISGSIKK

binding [2]: binds
binding [3]: binds
B5: Sml1 (protein, Saccharomyces cerevisiae, UniProt Q04964 1-104, looked up)
chain: MQNSQDYFYAQNRCQQQQAPSTLRTVTMAEFRRVPLPPMAEVPMLSTQNSMGSSASASASSLEMWEKDLEERLNSIDHDMNNNKFGSGELKSMFNQGKVEEMDF
